At least one peptide structure holds a part that was inferred or is arguable (an end, a ring closure or a residue). Residues, ends and D or L forms follow the SMILES beside them. No end group written: not given here.
Key:
[1] = tested on: SDF-1α induced THP-1 migration; experiment: Trans-well THP-1 migration assay, SDF-1α as chemoattractant; format: cell-based, human; settings: Table 4(b); 100 μM peptide; n.s. = no statistically significant inhibition
Method: FIG. 1 is a schematic of the trans-well migration assay. In most experiments, the peptide (wavy line) is added to the upper well with about 50,000 cells (O). The upper and lower wells are separated by a 5 μm or 8 μm pore size PVP-free membrane (- - - -). Chemokine (●) is added to the lower well. After 4 hours, the number of cells that have migrated through the membrane are measured (◯ in lower well).
To determine whether an agent inhibits a chemokine-induced activity, such as macrophage recruitment, varying amounts of the agent are mixed with cells in the presence of a known chemoattractant. For example, a range of known concentrations of an agent, e.g., a chemokine peptide, is incubated with a defined number (e.g., 10^4-10^6) of human THP-1 monocyte cells in individual wells of the top compartment of a trans-well plate. […] A standard curve consisting of a two-fold dilution series of THP-1 cells (in 29 μl) is prepared to accurately quantify the number of cells that have migrated. […] Absorbance of converted dye is measured at a wavelength of 595 nm using an ELISA plate reader. The number of migrated cells in each well is then determined by interpolation of the standard curve (see also Imai et al., J. Biol. Chem., 272, 15036 (1997)). […]

[2] = tested on: MCP-1 induced human monocyte migration; experiment: Human monocyte migration, MCP-1 induced; format: cell-based
[3] = tested on: SDF-1α induced human monocyte migration; experiment: Human monocyte migration, SDF-1α induced; format: cell-based; settings: Table 4(c); 100 μM peptide; n.s. = no statistically significant inhibition
Method: Agents may also be screened in a chemotactic assay which employs human neutrophils, eosinophils, mast cells, basophils, platelets, lymphocytes or monocytes. For monocytes, 9 mls of fresh blood are transferred to a tube containing 1 ml of 3.8% sodium citrate, and left at room temperature for 15 minutes. Five mls of this anti-coagulated blood are carefully layered over 3.5 ml Polymorphprep® (Nycomed Pharma, Oslo), and centrifuged at 500 g for 35 minutes per the manufacturer's instructions. The top band at the sample/medium interface contains monocytes. The monocytes are carefully removed with a glass pipette, and reconstituted to the original volume (5 ml). The cells are washed with PBS plus 10% fetal calf serum, and centrifuged at 400 g for 10 minutes. The washing step is repeated three times before the cells are counted. Cells are resuspended at 1×10^7 cells/ml in RPMI-1640+10% fetal calf serum (FCS). The monocytes are cultured for two days at 37° C. in a humidified atmosphere of 5% CO2.
On day 2, the cells are counted, spun down, and reconstituted to 1×10^7 cells/ml in Gey's balanced salt solution+1 mg/ml bovine serum albumin (BSA). […]

Molecule	Extent of inhibition of THP-1 migration at 100 μM, SDF-1α [1]	inhibition of MCP-1 induced migration of primary human monocytes ([2]; statistically significant)	Extent of inhibition of human monocyte migration at 100 μM, SDF-1α [3]	Extent of inhibition of human monocyte migration at 100 μM, MCP-1 ([2]; Table 4(c), 100 μM peptide, n.s. = no statistically significant inhibition)
SYRRITSSKCPKEAV [Peptide 2]	n.s.	20%	n.s.	
CC[C@H](C)[C@H](NC(=O)[C@H](C)NC(=O)[C@H](CC(=O)O)NC(=O)[C@@H]1CCCN1C(=O)[C@H](CCC(N)=O)NC(=O)[C@H](C)N)C(=O)N[C@@H](CC(N)=O)C(=O)N[C@@H](C)C(=O)N1CCC[C@H]1C(=O)N[C@H](C(=O)N[C@H](C(=O)N[C@@H](CS)C(=O)N[C@@H](CS)C(=O)O)[C@@H](C)O)C(C)C [Peptide 1] (H-AQPDAINAPVTCC-OH)	n.s.		n.s.	n.s.

— US6989435B2, “Compounds and methods to inhibit or augment an inflammatory response” (Cambridge University Technical Services Ltd., priority 1997, dated 2006)
